Some results were stated once for a whole list of compounds, not compound by compound. Some ranges recur; such a range may be that of the whole group of compounds. Where a SMILES comes first, the peptide text is derived from it. [ ]: non-standard residue; d: D form. The star is where a group is joined. pGlu = O=C1CC[C@@H](C(=O)O)N1; Octanoyl = CCCCCCCC(=O)*
Test: Oxazolone-induced atopic dermatitis mouse model, tolerability and bodyweights
Conditions: at day 28

Question: Which Bodyweights increase does the source give for CCCCCCCC(=O)NCCCC[C@H](NC(=O)[C@H](Cc1c[nH]c2ccccc12)NC(=O)[C@H](CC(N)=O)NC(=O)[C@@H]1CCC(=O)N1)C(=O)O [ZEP3, pGlu-Asn-Trp-Lys(Octanoyl)-OH] ([pGlu]NWK(Octanoyl)-OH) here?
Answer: 3-4%

Question: For C[C@@H](O)[C@H](NC(=O)[C@H](Cc1c[nH]c2ccccc12)NC(=O)[C@H](CC(N)=O)NC(=O)[C@@H]1CCC(=O)N1)C(=O)O [ZEP4, pGlu-Asn-Trp-Thr-OH] (HELM PEPTIDE1{[Glp].N.W.T}$$$$V2.0), which Bodyweights increase is on record?
Answer: 3-4%

Question: For CCCCCCCC(=O)NCCCC[C@H](NC(=O)[C@H](Cc1c[nH]c2ccccc12)NC(=O)[C@H](CC(N)=O)NC(=O)[C@@H]1CCC(=O)N1)C(=O)O [ZEP3Na, pGlu-Asn-Trp-Lys(Octanoyl)-OH.nNa] ([pGlu]NWK(Octanoyl)-OH), which Bodyweights increase is on record?
Answer: 3-4%
